Test results from paper PMC10821278.
These are yes or no findings as the source states them, for the method shown. Some results given as binding are weak or reduced against the parent protein; the word gives no strength.

By UniProt entry, the sequences of proteins in these tests, tags left out. Residues count along the entry.
UniProt P21530, residues 690-1062: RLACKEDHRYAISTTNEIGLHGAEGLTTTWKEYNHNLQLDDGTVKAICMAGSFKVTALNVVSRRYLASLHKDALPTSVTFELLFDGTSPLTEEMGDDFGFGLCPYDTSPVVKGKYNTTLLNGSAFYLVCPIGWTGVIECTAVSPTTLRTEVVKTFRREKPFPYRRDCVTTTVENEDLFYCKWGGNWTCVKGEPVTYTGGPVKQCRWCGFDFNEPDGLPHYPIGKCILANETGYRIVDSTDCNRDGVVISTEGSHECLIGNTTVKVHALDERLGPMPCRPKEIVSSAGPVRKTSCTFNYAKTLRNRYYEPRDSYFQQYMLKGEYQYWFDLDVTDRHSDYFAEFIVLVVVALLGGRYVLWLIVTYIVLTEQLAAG
UniProt Q45FY6: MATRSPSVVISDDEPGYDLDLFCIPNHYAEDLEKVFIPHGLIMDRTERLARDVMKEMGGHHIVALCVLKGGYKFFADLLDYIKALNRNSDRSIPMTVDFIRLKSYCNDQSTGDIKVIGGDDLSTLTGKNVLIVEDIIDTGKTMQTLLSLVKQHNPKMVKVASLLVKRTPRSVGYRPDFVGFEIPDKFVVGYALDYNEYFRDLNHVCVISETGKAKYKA

Molecular target: CSFV E2 fused to the Gal4 binding domain (E2-BD) (classical swine fever virus) (UniProt P21530)
Experiment: two-hybrid

swine hypoxanthine phosphoribosyl transferase 1 (HPRT1) fused to the Gal4 activation domain (HPRT1-AD) (from UniProt Q45FY6 1-218)
binding: binds
